Assay results: PMC8907234
No constants are given. Whether binding was seen depends on the method and setting. Some entries that bind do so weakly or less than the wild type. One block for each molecule: values may come before it.

The chains behind the UniProt entries cited, without tags or fusion partners.
UniProt P07149: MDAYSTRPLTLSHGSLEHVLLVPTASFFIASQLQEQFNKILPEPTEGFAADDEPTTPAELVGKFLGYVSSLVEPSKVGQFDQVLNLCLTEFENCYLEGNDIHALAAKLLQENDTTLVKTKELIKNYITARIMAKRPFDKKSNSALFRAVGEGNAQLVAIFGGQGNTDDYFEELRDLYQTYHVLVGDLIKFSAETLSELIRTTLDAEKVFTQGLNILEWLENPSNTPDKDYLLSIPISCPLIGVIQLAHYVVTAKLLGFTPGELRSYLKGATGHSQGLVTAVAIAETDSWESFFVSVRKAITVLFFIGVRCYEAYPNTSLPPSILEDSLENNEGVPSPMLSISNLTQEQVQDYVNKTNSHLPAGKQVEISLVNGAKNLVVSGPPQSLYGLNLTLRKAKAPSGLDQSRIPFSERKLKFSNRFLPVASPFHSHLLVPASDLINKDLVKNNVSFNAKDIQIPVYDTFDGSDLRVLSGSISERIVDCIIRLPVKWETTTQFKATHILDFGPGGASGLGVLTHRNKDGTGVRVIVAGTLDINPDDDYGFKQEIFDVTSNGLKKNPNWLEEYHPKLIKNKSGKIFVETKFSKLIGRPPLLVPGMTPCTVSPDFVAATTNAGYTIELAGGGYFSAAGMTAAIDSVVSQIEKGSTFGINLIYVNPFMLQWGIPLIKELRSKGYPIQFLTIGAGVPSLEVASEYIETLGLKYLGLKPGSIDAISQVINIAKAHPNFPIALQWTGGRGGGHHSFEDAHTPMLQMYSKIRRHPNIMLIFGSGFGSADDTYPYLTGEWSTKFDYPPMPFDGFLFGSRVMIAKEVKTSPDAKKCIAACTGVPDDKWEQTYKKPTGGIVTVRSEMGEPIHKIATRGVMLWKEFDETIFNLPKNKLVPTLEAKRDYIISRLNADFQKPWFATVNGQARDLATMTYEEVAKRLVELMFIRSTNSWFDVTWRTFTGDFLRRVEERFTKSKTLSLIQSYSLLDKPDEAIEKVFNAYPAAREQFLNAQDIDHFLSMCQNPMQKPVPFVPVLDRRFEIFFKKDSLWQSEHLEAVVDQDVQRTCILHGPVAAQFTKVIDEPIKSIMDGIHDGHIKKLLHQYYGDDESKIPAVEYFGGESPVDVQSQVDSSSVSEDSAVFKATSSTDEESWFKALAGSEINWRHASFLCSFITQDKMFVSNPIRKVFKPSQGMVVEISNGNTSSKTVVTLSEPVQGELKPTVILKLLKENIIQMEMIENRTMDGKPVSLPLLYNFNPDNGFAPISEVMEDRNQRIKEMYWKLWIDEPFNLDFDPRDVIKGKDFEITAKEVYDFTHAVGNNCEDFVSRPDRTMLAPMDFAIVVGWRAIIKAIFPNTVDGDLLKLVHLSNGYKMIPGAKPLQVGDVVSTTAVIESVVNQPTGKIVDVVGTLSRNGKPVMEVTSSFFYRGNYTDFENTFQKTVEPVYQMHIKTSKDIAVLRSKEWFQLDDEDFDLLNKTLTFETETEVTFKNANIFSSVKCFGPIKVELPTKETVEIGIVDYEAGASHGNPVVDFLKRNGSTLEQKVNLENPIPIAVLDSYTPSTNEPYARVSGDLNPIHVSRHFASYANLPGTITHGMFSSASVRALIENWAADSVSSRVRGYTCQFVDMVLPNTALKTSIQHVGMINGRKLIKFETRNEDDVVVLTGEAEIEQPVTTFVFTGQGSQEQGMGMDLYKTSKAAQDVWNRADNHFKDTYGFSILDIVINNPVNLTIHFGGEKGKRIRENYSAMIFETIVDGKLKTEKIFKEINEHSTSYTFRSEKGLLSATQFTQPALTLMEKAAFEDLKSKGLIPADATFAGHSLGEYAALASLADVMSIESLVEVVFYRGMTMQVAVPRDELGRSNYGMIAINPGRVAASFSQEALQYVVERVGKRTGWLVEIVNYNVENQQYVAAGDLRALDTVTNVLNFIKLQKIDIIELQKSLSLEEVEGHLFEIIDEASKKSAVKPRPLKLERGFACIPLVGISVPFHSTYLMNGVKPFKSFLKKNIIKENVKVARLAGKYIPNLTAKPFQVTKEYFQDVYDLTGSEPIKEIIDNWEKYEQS
UniProt Q02630: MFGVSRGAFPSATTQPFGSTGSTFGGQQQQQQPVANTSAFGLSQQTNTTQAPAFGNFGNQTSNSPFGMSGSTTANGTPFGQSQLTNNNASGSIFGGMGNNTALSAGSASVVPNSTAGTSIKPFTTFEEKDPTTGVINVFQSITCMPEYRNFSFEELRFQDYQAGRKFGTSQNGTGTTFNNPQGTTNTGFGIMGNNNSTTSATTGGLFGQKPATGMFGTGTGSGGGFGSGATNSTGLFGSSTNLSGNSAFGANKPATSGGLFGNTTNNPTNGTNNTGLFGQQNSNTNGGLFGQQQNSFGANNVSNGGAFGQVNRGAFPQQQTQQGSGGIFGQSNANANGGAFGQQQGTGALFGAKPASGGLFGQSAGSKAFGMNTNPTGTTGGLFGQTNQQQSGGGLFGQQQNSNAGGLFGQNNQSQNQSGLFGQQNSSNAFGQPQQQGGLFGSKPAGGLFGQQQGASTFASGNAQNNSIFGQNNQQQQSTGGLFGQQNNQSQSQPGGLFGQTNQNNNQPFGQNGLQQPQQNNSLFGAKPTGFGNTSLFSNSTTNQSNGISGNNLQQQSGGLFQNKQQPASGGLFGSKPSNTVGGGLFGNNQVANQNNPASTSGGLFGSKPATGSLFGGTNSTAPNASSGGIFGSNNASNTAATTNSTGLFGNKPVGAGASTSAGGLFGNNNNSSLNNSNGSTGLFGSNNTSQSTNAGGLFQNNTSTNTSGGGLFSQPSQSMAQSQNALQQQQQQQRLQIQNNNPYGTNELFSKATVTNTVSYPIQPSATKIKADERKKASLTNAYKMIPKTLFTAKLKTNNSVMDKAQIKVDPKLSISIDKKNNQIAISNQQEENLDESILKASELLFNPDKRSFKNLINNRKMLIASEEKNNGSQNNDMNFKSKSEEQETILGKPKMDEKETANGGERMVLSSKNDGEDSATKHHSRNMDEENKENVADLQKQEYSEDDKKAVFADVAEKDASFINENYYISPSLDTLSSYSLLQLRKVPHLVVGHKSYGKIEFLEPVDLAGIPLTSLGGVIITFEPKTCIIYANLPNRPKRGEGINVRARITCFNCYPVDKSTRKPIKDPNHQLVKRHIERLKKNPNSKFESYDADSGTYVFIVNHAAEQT
UniProt P19097: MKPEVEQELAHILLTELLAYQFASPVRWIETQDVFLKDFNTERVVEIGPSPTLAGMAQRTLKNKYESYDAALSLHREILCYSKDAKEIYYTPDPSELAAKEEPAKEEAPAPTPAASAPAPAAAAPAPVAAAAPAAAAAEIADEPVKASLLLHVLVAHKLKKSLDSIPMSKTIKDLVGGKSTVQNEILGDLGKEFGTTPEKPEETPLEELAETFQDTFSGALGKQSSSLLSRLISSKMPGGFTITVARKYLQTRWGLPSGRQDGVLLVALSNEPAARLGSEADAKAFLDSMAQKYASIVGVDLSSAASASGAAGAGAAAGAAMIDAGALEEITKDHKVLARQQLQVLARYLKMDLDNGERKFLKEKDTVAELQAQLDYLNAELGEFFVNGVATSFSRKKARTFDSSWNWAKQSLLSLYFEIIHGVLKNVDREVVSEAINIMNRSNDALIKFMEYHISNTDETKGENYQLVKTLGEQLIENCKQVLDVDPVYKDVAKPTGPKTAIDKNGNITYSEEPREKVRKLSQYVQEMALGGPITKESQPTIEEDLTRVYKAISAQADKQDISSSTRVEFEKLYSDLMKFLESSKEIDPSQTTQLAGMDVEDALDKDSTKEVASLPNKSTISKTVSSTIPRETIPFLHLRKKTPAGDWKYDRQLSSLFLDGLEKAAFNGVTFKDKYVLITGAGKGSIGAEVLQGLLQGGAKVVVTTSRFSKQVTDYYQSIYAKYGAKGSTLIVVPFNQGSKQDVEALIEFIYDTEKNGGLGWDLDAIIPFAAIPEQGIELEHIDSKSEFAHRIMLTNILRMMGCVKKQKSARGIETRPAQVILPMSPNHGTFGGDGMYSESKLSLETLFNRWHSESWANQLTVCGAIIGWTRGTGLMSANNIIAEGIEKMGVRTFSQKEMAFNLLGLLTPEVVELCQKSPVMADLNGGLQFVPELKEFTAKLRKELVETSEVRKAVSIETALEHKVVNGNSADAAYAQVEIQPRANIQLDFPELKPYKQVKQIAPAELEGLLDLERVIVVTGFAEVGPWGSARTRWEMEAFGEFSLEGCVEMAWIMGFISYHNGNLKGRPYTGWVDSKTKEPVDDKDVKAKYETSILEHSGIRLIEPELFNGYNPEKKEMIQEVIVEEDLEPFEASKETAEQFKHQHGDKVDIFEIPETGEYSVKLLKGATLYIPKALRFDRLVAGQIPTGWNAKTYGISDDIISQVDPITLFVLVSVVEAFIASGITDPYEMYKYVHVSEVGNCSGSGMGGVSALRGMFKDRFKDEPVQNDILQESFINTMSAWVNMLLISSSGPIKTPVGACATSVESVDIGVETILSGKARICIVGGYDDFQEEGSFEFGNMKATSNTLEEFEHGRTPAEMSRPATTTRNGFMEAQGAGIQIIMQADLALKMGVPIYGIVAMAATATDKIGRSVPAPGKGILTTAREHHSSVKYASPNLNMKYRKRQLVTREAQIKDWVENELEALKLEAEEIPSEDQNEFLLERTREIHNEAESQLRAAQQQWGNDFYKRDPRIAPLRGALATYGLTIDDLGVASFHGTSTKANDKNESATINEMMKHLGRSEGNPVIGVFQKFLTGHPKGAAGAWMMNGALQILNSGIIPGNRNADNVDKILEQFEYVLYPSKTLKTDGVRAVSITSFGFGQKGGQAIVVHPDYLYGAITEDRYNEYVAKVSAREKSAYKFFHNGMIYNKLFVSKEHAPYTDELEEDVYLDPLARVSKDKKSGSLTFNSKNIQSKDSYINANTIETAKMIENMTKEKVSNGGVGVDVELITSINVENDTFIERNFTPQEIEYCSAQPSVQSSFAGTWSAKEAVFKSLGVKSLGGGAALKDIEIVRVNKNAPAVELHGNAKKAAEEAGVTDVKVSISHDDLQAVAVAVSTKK
UniProt P38181: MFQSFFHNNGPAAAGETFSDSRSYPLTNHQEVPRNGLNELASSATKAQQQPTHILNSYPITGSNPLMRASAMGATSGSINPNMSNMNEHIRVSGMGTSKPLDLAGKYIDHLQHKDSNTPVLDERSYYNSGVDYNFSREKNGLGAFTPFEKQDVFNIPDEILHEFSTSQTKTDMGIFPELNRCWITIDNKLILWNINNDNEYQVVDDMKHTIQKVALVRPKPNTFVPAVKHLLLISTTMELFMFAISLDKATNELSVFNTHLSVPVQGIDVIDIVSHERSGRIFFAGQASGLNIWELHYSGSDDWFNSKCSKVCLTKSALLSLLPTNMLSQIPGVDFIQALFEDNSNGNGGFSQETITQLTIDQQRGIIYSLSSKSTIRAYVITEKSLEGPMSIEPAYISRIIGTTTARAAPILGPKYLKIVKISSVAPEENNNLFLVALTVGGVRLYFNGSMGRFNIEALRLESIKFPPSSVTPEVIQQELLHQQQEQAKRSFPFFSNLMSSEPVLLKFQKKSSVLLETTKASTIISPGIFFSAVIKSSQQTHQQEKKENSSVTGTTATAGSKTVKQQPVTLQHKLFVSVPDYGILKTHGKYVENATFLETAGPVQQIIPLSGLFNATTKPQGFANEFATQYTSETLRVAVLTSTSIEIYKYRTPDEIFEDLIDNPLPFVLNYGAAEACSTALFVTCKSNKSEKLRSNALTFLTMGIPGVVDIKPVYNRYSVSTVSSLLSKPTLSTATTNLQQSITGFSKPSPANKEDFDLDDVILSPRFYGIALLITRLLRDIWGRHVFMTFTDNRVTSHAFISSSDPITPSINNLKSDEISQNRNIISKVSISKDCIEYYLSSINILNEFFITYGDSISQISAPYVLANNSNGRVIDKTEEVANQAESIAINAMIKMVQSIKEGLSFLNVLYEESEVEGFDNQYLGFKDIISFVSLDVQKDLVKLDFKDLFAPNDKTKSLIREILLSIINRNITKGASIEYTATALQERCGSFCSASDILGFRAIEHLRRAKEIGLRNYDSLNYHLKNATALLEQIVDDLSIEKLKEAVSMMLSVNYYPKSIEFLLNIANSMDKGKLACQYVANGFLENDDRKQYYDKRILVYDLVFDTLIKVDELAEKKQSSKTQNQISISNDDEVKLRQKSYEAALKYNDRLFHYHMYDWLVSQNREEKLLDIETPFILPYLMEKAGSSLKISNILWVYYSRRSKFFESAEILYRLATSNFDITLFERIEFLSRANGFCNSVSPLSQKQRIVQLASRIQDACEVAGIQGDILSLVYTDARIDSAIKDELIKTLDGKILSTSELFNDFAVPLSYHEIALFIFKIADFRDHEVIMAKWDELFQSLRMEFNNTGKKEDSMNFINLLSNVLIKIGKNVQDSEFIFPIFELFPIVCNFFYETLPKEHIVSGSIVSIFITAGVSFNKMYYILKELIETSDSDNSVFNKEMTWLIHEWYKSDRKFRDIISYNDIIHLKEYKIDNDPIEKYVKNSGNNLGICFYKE

How the values were obtained:
[1] = target: fatty acid synthase subunit Fas1 (S. cerevisiae) (UniProt P07149); test: RIP-qPCR (affinity purification of the bait, qPCR of the co-enriched mRNA of the nascent partner); Twin-StrepII bait from yeast lysate on Streptactin resin, 4 °C, lysis in 500 mM KCl, washes in 140 mM KCl; cycloheximide against puromycin; co-translational if mean signal with cycloheximide >=1.5 and significantly lower with puromycin; also Nsp1-StrepII in the Nup57 alpha-beta deletion strain
[2] = target: fatty acid synthase subunit Fas1 (S. cerevisiae) (UniProt P07149); test: selective ribosome profiling (SeRP); RNase I monosomes pelleted through sucrose, Twin-StrepII bait pulled down on Streptactin sepharose, ribosome footprints of the IP against the total translatome; cycloheximide
[3] = target: Nup116 (S. cerevisiae) (UniProt Q02630); test: RIP-qPCR (affinity purification of the bait, qPCR of the co-enriched mRNA of the nascent partner); Twin-StrepII bait from yeast lysate on Streptactin resin, 4 °C, lysis in 500 mM KCl, washes in 140 mM KCl; cycloheximide against puromycin; co-translational if mean signal with cycloheximide >=1.5 and significantly lower with puromycin; also Nsp1-StrepII in the Nup57 alpha-beta deletion strain
[4] = target: T1, Gle2 (S. cerevisiae) (UniProt P40066); test: as above
T1 sequence: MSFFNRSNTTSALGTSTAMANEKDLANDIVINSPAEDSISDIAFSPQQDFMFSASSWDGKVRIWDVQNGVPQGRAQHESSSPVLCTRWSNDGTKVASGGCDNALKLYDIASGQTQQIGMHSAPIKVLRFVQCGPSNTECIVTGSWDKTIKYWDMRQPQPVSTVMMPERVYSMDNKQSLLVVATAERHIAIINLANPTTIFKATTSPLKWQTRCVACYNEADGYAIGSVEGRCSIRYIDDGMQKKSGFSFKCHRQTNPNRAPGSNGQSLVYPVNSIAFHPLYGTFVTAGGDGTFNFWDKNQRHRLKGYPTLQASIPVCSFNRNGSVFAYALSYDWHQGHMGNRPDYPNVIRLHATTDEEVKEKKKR

[5] = target: T2, Nup53 (S. cerevisiae) (UniProt Q03790); test: as above
T2 sequence: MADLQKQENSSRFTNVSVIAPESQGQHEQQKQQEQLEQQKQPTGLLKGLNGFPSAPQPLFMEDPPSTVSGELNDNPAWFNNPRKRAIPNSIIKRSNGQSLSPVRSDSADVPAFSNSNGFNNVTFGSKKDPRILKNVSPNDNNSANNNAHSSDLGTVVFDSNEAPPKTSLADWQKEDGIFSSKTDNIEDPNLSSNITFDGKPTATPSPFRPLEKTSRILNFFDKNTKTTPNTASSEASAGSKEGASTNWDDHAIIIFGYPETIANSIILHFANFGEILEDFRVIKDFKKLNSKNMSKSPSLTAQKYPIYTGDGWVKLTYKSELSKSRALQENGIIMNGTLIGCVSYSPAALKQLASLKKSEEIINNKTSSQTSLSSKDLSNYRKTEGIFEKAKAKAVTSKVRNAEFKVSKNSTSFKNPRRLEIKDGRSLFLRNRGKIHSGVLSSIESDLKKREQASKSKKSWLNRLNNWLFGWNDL

[6] = target: T3, Sec13 (S. cerevisiae) (UniProt Q04491); test: selective ribosome profiling (SeRP); RNase I monosomes pelleted through sucrose, Twin-StrepII bait pulled down on Streptactin sepharose, ribosome footprints of the IP against the total translatome; cycloheximide
T3 sequence: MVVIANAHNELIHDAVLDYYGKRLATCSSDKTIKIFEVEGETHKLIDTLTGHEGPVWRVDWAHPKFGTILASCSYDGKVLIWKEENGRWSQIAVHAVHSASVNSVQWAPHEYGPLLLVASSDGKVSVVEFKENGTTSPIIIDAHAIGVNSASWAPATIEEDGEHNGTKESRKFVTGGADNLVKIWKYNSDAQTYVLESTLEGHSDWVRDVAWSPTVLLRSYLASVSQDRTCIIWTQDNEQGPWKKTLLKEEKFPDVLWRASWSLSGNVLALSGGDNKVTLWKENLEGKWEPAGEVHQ

[7] = target: Fas2 (S. cerevisiae) (UniProt P19097); test: condition: only to the nascent chain (co-translational engagement); binding of the finished proteins not tested; RIP-qPCR (affinity purification of the bait, qPCR of the co-enriched mRNA of the nascent partner); Twin-StrepII bait from yeast lysate on Streptactin resin, 4 °C, lysis in 500 mM KCl, washes in 140 mM KCl; cycloheximide against puromycin; co-translational if mean signal with cycloheximide >=1.5 and significantly lower with puromycin; also Nsp1-StrepII in the Nup57 alpha-beta deletion strain
[8] = target: Nup170 (S. cerevisiae) (UniProt P38181); test: condition: only to the nascent chain (co-translational engagement); binding of the finished proteins not tested; selective ribosome profiling (SeRP); RNase I monosomes pelleted through sucrose, Twin-StrepII bait pulled down on Streptactin sepharose, ribosome footprints of the IP against the total translatome; cycloheximide
[9] = target: Nup170 (S. cerevisiae) (UniProt P38181); test: condition: only to the nascent chain (co-translational engagement); binding of the finished proteins not tested; RIP-qPCR (affinity purification of the bait, qPCR of the co-enriched mRNA of the nascent partner); Twin-StrepII bait from yeast lysate on Streptactin resin, 4 °C, lysis in 500 mM KCl, washes in 140 mM KCl; cycloheximide against puromycin; co-translational if mean signal with cycloheximide >=1.5 and significantly lower with puromycin; also Nsp1-StrepII in the Nup57 alpha-beta deletion strain

Molecule: Nup116 (from UniProt Q02630 1-1113)
binding [4]: binds

Molecule: Nup170 (from UniProt P38181 1-1502)
binding [5]: binds

Molecule: fatty acid synthase subunit Fas1 (from UniProt P07149 1-2051)
binding [7]: no binding

B1: Nup53 (protein, UniProt Q03790 1-475)
chain: T2 sequence
binding [8]: no binding
binding [9]: no binding

Results, then the molecule that gave them:

binding [1]: binds
binding [2]: binds
Molecule: Fas2 (from UniProt P19097 1-1887)

binding [3]: binds
Molecule: Nup82 (from UniProt P40368 1-713)

binding [6]: binds
Molecule: Sec16 (from UniProt P48415 1-2195)
